Numbering of substitutions follows the chain as printed. Names may count otherwise. No constants are given. Whether binding was seen depends on the method and setting.
T1: R207A mutant p120RasGAP N-terminal SH2 domain (human) (UniProt P20936)
T1 sequence: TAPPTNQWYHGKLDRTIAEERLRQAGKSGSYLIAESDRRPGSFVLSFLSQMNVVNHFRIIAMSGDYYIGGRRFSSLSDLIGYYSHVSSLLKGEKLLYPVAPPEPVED

B1: p120RasGAP N-terminal SH2 domain (residues 174-280, C236S, C261S) (domain or fragment, UniProt P20936 174-280)
chain: T1 sequence with A34R

Experiments:
[1] = target: T1, R207A mutant p120RasGAP N-terminal SH2 domain (human); assay: condition: phosphopeptide 0.02 mM to 0.15 mM with 0.08 mM protein; native gel or EMSA; native PAGE; 0.08 mM protein mixed with 0.02-0.15 mM phosphopeptide (peptide:protein ratio 0.25 to 1.9) in 50 mM Tris pH 7.4, 10 minutes on ice; 4-20% gel, 25 mM Tris, 192 mM glycine, pH 8.3; Coomassie stain; both purified
[2] = target: T1, R207A mutant p120RasGAP N-terminal SH2 domain (human); assay: ITC; peptide in the burette injected into N-SH2 in the cell (78.5 μM into 15 μM wild type; 120 μM into 15 μM R207A); 20 mM Tris 7.4, 150 mM NaCl; Nano-ITC, 20 injections of 2.5 μL; independent binding model; two runs; both purified
[3] = target: p120RasGAP N-terminal SH2 domain (residues 174-280, C236S, C261S) (human) (UniProt P20936); assay: crystal structure; apo N-SH2 crystals, 6 copies per asymmetric unit in P3_(2); 0.2 M ammonium acetate, 0.1 M Tris pH 8.0, 21% w/v PEG 10,000, room temperature; 1.75 Å; both purified

Binder | binding [1] | binding [2] | binding [3]
EEENIYSVPHDST (phosphotyrosine at Tyr-1105; N-terminal acetylation; C-terminal amidation) [p190RhoGAP pTyr-1105 phosphopeptide EEENI(p-Tyr)SVPHDST (residues 1100-1112)] | no binding | no binding (tested: 120 μM peptide into 15 μM protein) | –
B1 | – | – | no binding
